Results taken from US11299526B2, “p53-BAD fusion proteins” (University of Utah Research Foundation, priority 2018, dated 2022).
For part of these data: At least one compound was matched to its structure with a doubt left. Some results were stated once for a whole list of compounds, not compound by compound.

Tests used:
OVCAR-3 cells = settings: cited from earlier work
SKOV-3 cells = assay: Mitochondrial localization of EGFP-tagged constructs, fluorescence microscopy with PCC analysis; assay type: cell-based, human; settings: EGFP vs MitoTracker Red, 30 cells, 0.6 or higher = co-localized
Description: Images of p53-BH3 (EGFP tagged on N-terminus) can be acquired 18 h post-transfection with an Olympus IX71F fluorescence microscope with a F-View Monochrome CCD camera and analyzed with ImageJ using Pearson's correlation coefficient (PCC) and post Costes' algorithm. PCC≥0.6 are considered to be colocalized. […] Apoptosis assay: 7-AAD assay (measuring late-stage apoptosis) can be performed as done before as an initial screen. As before, cells can be stained with […] working solution of 7-aminoactinomycin D (7-AAD) 24 hr post-transfection. Cells can be analyzed and gated for EGFP with the same fluorescence intensity to ensure equal detection of proteins
24 hr post-transfection, cells were stained in PBS solution containing 200 nM MitoTracker Red CM-H2Xros (Thermo Scientific), 1:100 dilution of ProLong Live Antifade Reagent (Thermo Scientific), and 2 μM Hoechst stain. The cells were incubated for 20 minutes protected from light. Images were acquired using a Nikon AIR fluorescence confocal microscope with 60× Plan Apo Oil immersion objective (core facility, University of Utah). The images were visualized using NIS element software with built in EGFP, MitoTracker Red, and DAPI filters. Co-localization analyses were performed using the JACoP plugin for ImageJ software. […] The experiments were performed three times with 10 cells analyzed each experiment for a total of 30 cells per gene constructs.

Molecule	IC50 (OVCAR-3 cells) [µM]	Pearson's correlation coefficient (PCC) value (SKOV-3 cells)
CC1(C)CCC(CN2CCN(c3ccc(C(=O)NS(=O)(=O)c4ccc(NCC5CCOCC5)c([N+](=O)[O-])c4)c(Oc4cnc5[nH]ccc5c4)c3)CC2)=C(c2ccc(Cl)cc2)C1 [ABT199, venetoclax]	15 ± 5	
Bad: EGFP-tagged human Bad without p53 (SEQ ID NO:1), negative control (protein, UniProt Q92934 1-168, looked up, EGFP tag) Bcl2-associated agonist of …: MFQIPEFEPSEQEDSSSAERGLGPSPAGDGPSGSGKHHRQAPGLLWDASHQQEQPTSSSHHGGAGAVEIRSRHSSYPAGTEDDEGMGEEPSPFRGRSRSAPPNLWAAQRYGRELRRMSDEFVDSFKKGLPRPKSAGTATQMRQSSSWTRVFQSWWDRNLGRGSSAPSQ		less than 0.6
Bad/112,136: Bad with S112A and S136A mutations (SEQ ID NO:2), no p53, negative control (protein, mutated BAD peptide) MFQIPEFEPSEQEDSSSAERGLGPSPAGDGPSGSGKHHRQAPGLLWDASHQQEQPTSSSHHGGAGAVEIRSRHSAYPAGTEDDEGMGEEPSPFRGRSRAAPPNLWAAQRYGRELRRMSDEFVDSFKKGLPRPKSAGTATQMRQSSSWTRVFQSWWDRNLGRGSSAPSQ		≥ 0.6
